These are yes or no findings as the source states them, for the method shown. Binding seen in cells or lysates may run through a third protein. Some results given as binding are weak or reduced against the parent protein; the word gives no strength.
Experiments:
[1] = target: GFP-tagged, Twin-Strep-tagged FUS P525L (human) (UniProt P35637); assay: co-IP
[2] = target: GFP-tagged, Twin-Strep-tagged FUS WT (human) (UniProt P35637); assay: co-IP

Sequences of proteins named here, by UniProt entry; tags and fusion partners are left off. A change or cut given only in a name is not applied to a line headed by its entry.
UniProt P35637: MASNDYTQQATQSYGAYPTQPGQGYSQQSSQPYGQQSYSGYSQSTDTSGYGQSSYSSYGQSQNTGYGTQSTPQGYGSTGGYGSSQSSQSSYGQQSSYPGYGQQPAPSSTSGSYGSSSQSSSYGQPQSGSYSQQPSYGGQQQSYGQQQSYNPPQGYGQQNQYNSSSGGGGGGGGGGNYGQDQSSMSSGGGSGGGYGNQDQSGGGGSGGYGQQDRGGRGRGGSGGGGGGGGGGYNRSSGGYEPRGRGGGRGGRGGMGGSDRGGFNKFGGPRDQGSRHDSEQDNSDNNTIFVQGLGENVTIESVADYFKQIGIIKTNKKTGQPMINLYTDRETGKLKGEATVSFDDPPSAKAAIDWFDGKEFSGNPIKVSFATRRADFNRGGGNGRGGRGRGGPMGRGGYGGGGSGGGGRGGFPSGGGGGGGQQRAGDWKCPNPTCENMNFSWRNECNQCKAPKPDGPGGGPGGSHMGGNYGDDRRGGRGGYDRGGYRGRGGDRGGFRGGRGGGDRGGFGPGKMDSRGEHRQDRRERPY
UniProt Q13283: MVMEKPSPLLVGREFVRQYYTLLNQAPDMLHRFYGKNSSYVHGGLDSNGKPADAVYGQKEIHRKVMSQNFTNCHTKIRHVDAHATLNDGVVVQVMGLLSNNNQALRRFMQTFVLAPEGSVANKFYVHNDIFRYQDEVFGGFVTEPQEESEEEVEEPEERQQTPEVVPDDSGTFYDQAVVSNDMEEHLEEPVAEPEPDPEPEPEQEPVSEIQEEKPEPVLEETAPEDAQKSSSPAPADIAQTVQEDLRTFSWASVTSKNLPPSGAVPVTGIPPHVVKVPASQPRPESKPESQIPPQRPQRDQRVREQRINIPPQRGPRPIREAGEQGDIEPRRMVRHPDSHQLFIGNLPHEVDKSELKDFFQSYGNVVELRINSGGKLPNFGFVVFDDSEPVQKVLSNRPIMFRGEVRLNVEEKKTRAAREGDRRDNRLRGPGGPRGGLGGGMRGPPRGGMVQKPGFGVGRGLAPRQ
UniProt P05198: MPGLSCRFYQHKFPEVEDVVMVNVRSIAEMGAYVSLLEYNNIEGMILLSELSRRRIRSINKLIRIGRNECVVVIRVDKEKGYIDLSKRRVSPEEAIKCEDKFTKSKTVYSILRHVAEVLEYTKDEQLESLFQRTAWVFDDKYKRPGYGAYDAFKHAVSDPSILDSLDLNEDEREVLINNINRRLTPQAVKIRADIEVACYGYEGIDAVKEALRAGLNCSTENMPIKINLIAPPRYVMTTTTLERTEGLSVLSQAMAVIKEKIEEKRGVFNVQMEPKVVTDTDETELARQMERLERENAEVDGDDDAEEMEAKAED
UniProt Q01844: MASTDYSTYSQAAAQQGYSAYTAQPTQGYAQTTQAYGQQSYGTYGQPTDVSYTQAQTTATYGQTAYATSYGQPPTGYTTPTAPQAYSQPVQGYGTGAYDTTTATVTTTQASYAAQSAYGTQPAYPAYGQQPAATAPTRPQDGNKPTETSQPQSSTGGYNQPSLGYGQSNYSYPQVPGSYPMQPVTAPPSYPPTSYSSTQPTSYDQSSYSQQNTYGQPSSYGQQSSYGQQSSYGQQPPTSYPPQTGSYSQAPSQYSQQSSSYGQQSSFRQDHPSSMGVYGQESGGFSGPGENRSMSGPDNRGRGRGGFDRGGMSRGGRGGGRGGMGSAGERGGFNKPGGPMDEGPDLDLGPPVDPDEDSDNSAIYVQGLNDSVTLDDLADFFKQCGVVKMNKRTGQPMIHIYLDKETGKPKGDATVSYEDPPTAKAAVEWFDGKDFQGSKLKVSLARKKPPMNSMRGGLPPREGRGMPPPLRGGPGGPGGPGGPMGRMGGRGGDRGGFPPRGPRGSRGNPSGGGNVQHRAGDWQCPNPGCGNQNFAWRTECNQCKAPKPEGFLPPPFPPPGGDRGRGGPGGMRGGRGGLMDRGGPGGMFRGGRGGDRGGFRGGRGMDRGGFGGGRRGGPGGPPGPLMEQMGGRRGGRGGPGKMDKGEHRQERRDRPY

G3BP1 (from UniProt Q13283 1-466)
binding [1]: binds

eIF2α (from UniProt P05198 1-315)
binding [1]: binds
binding [2]: binds

EWS (from UniProt Q01844 1-656)
binding [1]: binds
binding [2]: binds

B1: UPF1 (protein, UniProt Q92900 1-1129)
chain: MSVEAYGPSSQTLTFLDTEEAELLGADTQGSEFEFTDFTLPSQTQTPPGGPGGPGGGGAGGPGGAGAGAAAGQLDAQVGPEGILQNGAVDDSVAKTSQLLAELNFEEDEEDTYYTKDLPIHACSYCGIHDPACVVYCNTSKKWFCNGRGNTSGSHIVNHLVRAKCKEVTLHKDGPLGETVLECYNCGCRNVFLLGFIPAKADSVVVLLCRQPCASQSSLKDINWDSSQWQPLIQDRCFLSWLVKIPSEQEQLRARQITAQQINKLEELWKENPSATLEDLEKPGVDEEPQHVLLRYEDAYQYQNIFGPLVKLEADYDKKLKESQTQDNITVRWDLGLNKKRIAYFTLPKTDSGNEDLVIIWLRDMRLMQGDEICLRYKGDLAPLWKGIGHVIKVPDNYGDEIAIELRSSVGAPVEVTHNFQVDFVWKSTSFDRMQSALKTFAVDETSVSGYIYHKLLGHEVEDVIIKCQLPKRFTAQGLPDLNHSQVYAVKTVLQRPLSLIQGPPGTGKTVTSATIVYHLARQGNGPVLVCAPSNIAVDQLTEKIHQTGLKVVRLCAKSREAIDSPVSFLALHNQIRNMDSMPELQKLQQLKDETGELSSADEKRYRALKRTAERELLMNADVICCTCVGAGDPRLAKMQFRSILIDESTQATEPECMVPVVLGAKQLILVGDHCQLGPVVMCKKAAKAGLSQSLFERLVVLGIRPIRLQVQYRMHPALSAFPSNIFYEGSLQNGVTAADRVKKGFDFQWPQPDKPMFFYVTQGQEEIASSGTSYLNRTEAANVEKITTKLLKAGAKPDQIGIITPYEGQRSYLVQYMQFSGSLHTKLYQEVEIASVDAFQGREKDFIILSCVRANEHQGIGFLNDPRRLNVALTRARYGVIIVGNPKALSKQPLWNHLLNYYKEQKVLVEGPLNNLRESLMQFSKPRKLVNTINPGARFMTTAMYDAREAIIPGSVYDRSSQGRPSSMYFQTHDQIGMISAGPSHVAAMNIPIPFNLVMPPMPPPGYFGQANGPAAGRGTPKGKTGRGGRQKNRFGLPGPSQTNLPNSQASQDVASQPFSQGALTQGYISMSQPSQMSQPGLSQPELSQDSYLGDEFKSQIDVALSQDSTYQGERAYQHGGVTGLSQY
binding [1]: binds

B2: MOV10 (protein, UniProt Q9HCE1 1-1003)
chain: MPSKFSCRQLREAGQCFESFLVVRGLDMETDRERLRTIYNRDFKISFGTPAPGFSSMLYGMKIANLAYVTKTRVRFFRLDRWADVRFPEKRRMKLGSDISKHHKSLLAKIFYDRAEYLHGKHGVDVEVQGPHEARDGQLLIRLDLNRKEVLTLRLRNGGTQSVTLTHLFPLCRTPQFAFYNEDQELPCPLGPGECYELHVHCKTSFVGYFPATVLWELLGPGESGSEGAGTFYIARFLAAVAHSPLAAQLKPMTPFKRTRITGNPVVTNRIEEGERPDRAKGYDLELSMALGTYYPPPRLRQLLPMLLQGTSIFTAPKEIAEIKAQLETALKWRNYEVKLRLLLHLEELQMEHDIRHYDLESVPMTWDPVDQNPRLLTLEVPGVTESRPSVLRGDHLFALLSSETHQEDPITYKGFVHKVELDRVKLSFSMSLLSRFVDGLTFKVNFTFNRQPLRVQHRALELTGRWLLWPMLFPVAPRDVPLLPSDVKLKLYDRSLESNPEQLQAMRHIVTGTTRPAPYIIFGPPGTGKTVTLVEAIKQVVKHLPKAHILACAPSNSGADLLCQRLRVHLPSSIYRLLAPSRDIRMVPEDIKPCCNWDAKKGEYVFPAKKKLQEYRVLITTLITAGRLVSAQFPIDHFTHIFIDEAGHCMEPESLVAIAGLMEVKETGDPGGQLVLAGDPRQLGPVLRSPLTQKHGLGYSLLERLLTYNSLYKKGPDGYDPQFITKLLRNYRSHPTILDIPNQLYYEGELQACADVVDRERFCRWAGLPRQGFPIIFHGVMGKDEREGNSPSFFNPEEAATVTSYLKLLLAPSSKKGKARLSPRSVGVISPYRKQVEKIRYCITKLDRELRGLDDIKDLKVGSVEEFQGQERSVILISTVRSSQSFVQLDLDFNLGFLKNPKRFNVAVTRAKALLIIVGNPLLLGHDPDWKVFLEFCKENGGYTGCPFPAKLDLQQGQNLLQGLSKLSPSTSGPHSHDYLPQEREGEGGLSLQVEPEWRNEL
binding [1]: binds
binding [2]: binds

B3: CLTA (protein, UniProt P09496 1-248)
chain: MAELDPFGAPAGAPGGPALGNGVAGAGEEDPAAAFLAQQESEIAGIENDEAFAILDGGAPGPQPHGEPPGGPDAVDGVMNGEYYQESNGPTDSYAAISQVDRLQSEPESIRKWREEQMERLEALDANSRKQEAEWKEKAIKELEEWYARQDEQLQKTKANNRVADEAFYKQPFADVIGYVTNINHPCYSLEQAAEEAFVNDIDESSPGTEWERVARLCDFNPKSSKQAKDVSRMRSVLISLKQAPLVH
binding [1]: binds
binding [2]: binds
